The other results are listed elsewhere or left out. This data set is noisy: repeats of one test often differ as much as different tests do.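 Free-swimming zebrafish larvae were scored for O-bend response probability to dark flashes (naive: first five; training: remaining flashes of four 60-flash blocks; test: later 60-flash block) and for turning toward alternating leftward/rightward LED motion (OMR). Six treated larvae were compared with sixty 0.1% DMSO controls; |SSMD|≥2 defined a hit.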

Conditions in all cases: 10 µM; pre-incubation: 30-90 min
The test system of test [1] is Danio rerio larvae (5 dpf, TLF). Put plainly: OMR-Perf (SSMD vs DMSO vehicle); higher = higher than vehicle (e.g. higher dark-flash O-bend response probability, or better optomotor performance).
For test [2] the test system is unchanged. The test is described as follows: Prob-Test (SSMD vs DMSO vehicle); higher = higher than vehicle (e.g. higher dark-flash O-bend response probability, or better optomotor performance).
For test [3] the test system is unchanged. Put plainly: Prob-Naive (SSMD vs DMSO vehicle); higher = higher than vehicle (e.g. higher dark-flash O-bend response probability, or better optomotor performance).
The test system is the same in test [4]. The test is described as follows: Prob-Train (SSMD vs DMSO vehicle); higher = higher than vehicle (e.g. higher dark-flash O-bend response probability, or better optomotor performance).

`COc1ccc2ccc(=O)oc2c1CC=C(C)C` [Osthole] returned an OMR-Perf in test [1] of -0.759. For the same compound, the Prob-Test in test [2] is -1.81. Besides, the Prob-Naive in test [3] was -4.28. Also, in test [4], the Prob-Train is -1.5.

In turn, `CCC[C@@H]1C[C@@H](C(=O)N[C@H]([C@H]2O[C@@H](SC)[C@H](OP(=O)(O)O)[C@@H](O)[C@H]2O)[C@H](C)Cl)N(C)C1` [Clindamycin phosphate] displayed an OMR-Perf in test [1] of -0.247. The compound further yielded a Prob-Test in test [2] of 0.213. For the same compound, the Prob-Naive in test [3] was -0.491. In test [4], this compound had a Prob-Train of -0.301.

Take `N#Cc1cc(CN2CCC(Nc3ncnc4sc(Cl)cc34)CC2)ccc1F.O=C(O)/C=C\C(=O)O`: the OMR-Perf in test [1] is -0.875. In addition, in test [2], the Prob-Test was -0.703. Also, the Prob-Naive in test [3] amounted to 0.0551. Also, the Prob-Train in test [4] was -1.38.

In turn, `CNCCc1ccccn1.Cl.Cl` [Betahistine 2HCl] displayed an OMR-Perf in test [1] of -0.123. This compound came in with a Prob-Test in test [2] of -0.321. The Prob-Naive in test [3] was 0.651. Moreover, in test [4], the Prob-Train was -0.0229.

The compound `C[N+]1(C)[C@@H]2C[C@@H](OC(=O)C(O)(c3cccs3)c3cccs3)C[C@H]1[C@@H]1O[C@@H]12.O.[Br-]` [Tiotropium Bromide hydrate] gave an OMR-Perf in test [1] of -0.68. In test [2], this compound came in with a Prob-Test of -0.83. In test [3], the Prob-Naive was -0.0607. In test [4], this compound displayed a Prob-Train of -0.776.

In turn, `CCn1cc(C(=O)O)c(=O)c2cc(F)c(N3CCNC(C)C3)c(F)c21.Cl` (stereo not given) [Lomefloxacin HCl] yielded an OMR-Perf in test [1] of 0.325. In test [2], this compound came in with a Prob-Test of 0.168. The compound further displayed a Prob-Naive in test [3] of 0.402. Further, the Prob-Train in test [4] came to 0.365.

Regarding `Cc1ccccc1N1C(=O)c2cc(S(N)(=O)=O)c(Cl)cc2NC1C` (stereo not given) [Metolazone], the OMR-Perf in test [1] is -0.329. This compound had a Prob-Test in test [2] of 0.0454. In test [3], this compound showed a Prob-Naive of 0.184. The compound further gave a Prob-Train in test [4] of 0.0982.

Compound `COc1cc(CCc2cc(NC(=O)c3ccc(N4C[C@@H](C)N[C@@H](C)C4)cc3)n[nH]2)cc(OC)c1` yielded an OMR-Perf in test [1] of 0.878. For the same compound, the Prob-Test in test [2] was found to be 1.26. For the same compound, the Prob-Naive in test [3] was determined as 0.319. Further, the Prob-Train in test [4] came out at 0.955.

Turning to `CN(C)CCC(c1ccc(Cl)cc1)c1ccccn1.O=C(O)/C=C\C(=O)O` (stereo not given) [Chlorpheniramine Maleate], the OMR-Perf in test [1] is 0.157. For the same compound, in test [2], the Prob-Test stood at 1.01. For the same compound, the Prob-Naive in test [3] was -0.027. The Prob-Train in test [4] was 0.146.

In the case of `CN(C)C(=O)Nc1cccc(-c2ccc(N(C)C)cc2)c1` [Atglistatin], in test [1], the OMR-Perf is -0.461. This compound also showed a Prob-Test in test [2] of -0.466. Besides, in test [3], the Prob-Naive was -0.387. The same compound showed a Prob-Train in test [4] of -0.79.

As for `O=C1c2ccccc2C(=O)C1c1ccccc1` [Phenindione], the OMR-Perf in test [1] was -0.431. In test [2], this compound had a Prob-Test of 0.045. The Prob-Naive in test [3] was 0.375. This compound had a Prob-Train in test [4] of -0.702.

On to `Nc1ccc(S(N)(=O)=O)cc1` [Sulfanilamide], for which, in test [1], the OMR-Perf was 0.0191. Also, the Prob-Test in test [2] is 1.05. For the same compound, the Prob-Naive in test [3] is 0.549. The Prob-Train in test [4] was determined as 0.794.

`Nc1nc(=S)c2[nH]cnc2[nH]1` [Thioguanine] returned an OMR-Perf in test [1] of 0.299. The compound further returned a Prob-Test in test [2] of -0.243. Moreover, in test [3], the Prob-Naive worked out at 0.421. In test [4], this compound yielded a Prob-Train of 0.27.

For `COC(=O)N[C@H](C(=O)N1CCC[C@H]1c1ncc(-c2ccc(-c3ccc(-c4cnc([C@@H]5CCCN5C(=O)[C@@H](NC(=O)OC)C(C)C)[nH]4)cc3)cc2)[nH]1)C(C)C`, the OMR-Perf in test [1] was -0.642. Besides, the Prob-Test in test [2] was found to be 0.0802. This compound came in with a Prob-Naive in test [3] of 0.464. This compound came in with a Prob-Train in test [4] of -0.0817.

In test [1], `CC(=O)O[C@]1(C(C)=O)CC[C@H]2[C@@H]3C[C@H](C)C4=CC(=O)C=C[C@]4(C)[C@@]3(F)[C@@H](O)C[C@@]21C` [Fluorometholone Acetate] gave an OMR-Perf of 1.01. In test [2], this compound displayed a Prob-Test of -0.359. Further, the Prob-Naive in test [3] was found to be 0.312. The compound also gave a Prob-Train in test [4] of 0.0348.

In turn, `CCOc1nc2cccc(C(=O)O)c2n1Cc1ccc(-c2ccccc2-c2nn[nH]n2)cc1` [Candesartan] displayed an OMR-Perf in test [1] of 0.0146. This compound registered a Prob-Test in test [2] of -0.0788. In addition, the Prob-Naive in test [3] was found to be 0.506. The compound further yielded a Prob-Train in test [4] of 0.297.

Turning to `O=C(NOCC(O)CO)c1cc(Br)c(F)c(F)c1Nc1ccc(I)cc1F` (stereo not given), in test [1], the OMR-Perf was 0.043. For the same compound, the Prob-Test in test [2] was -1.61. Moreover, the Prob-Naive in test [3] is 0.564. This compound also showed a Prob-Train in test [4] of -0.726.

`Nc1nc2c(ncn2COC(CO)CO)c(=O)[nH]1` [Ganciclovir] displayed an OMR-Perf in test [1] of -0.917. In test [2], this compound had a Prob-Test of 0.0499. Besides, in test [3], the Prob-Naive is -0.341. The compound also had a Prob-Train in test [4] of 0.0654.

As for `CC1(C)[C@@H](C(=O)[O-])N2C(=O)C[C@H]2S1(=O)=O.[Na+]` [Sulbactam sodium], in test [1], the OMR-Perf is 0.169. The Prob-Test in test [2] is -0.164. The same compound registered a Prob-Naive in test [3] of -0.55. In test [4], this compound came in with a Prob-Train of -0.633.

In test [1], `Cc1nnc(NS(=O)(=O)c2ccc(N)cc2)s1` [Sulfamethizole] had an OMR-Perf of -0.111. Also, the Prob-Test in test [2] is -0.249. This compound gave a Prob-Naive in test [3] of 0.402. The Prob-Train in test [4] was 0.336.

Compound `O=C1Cc2c([nH]c3ccc(Br)cc23)-c2ncccc2N1` [1-Azakenpaullone] displayed an OMR-Perf in test [1] of -0.232. For the same compound, the Prob-Test in test [2] was -0.448. In addition, the Prob-Naive in test [3] is -0.32. In addition, in test [4], the Prob-Train is -0.519.

With `N#Cc1ccc(C(c2ccc(C#N)cc2)n2cncn2)cc1` [Letrozole], the OMR-Perf in test [1] was 1.26. Moreover, in test [2], the Prob-Test came to 0.52. In test [3], this compound returned a Prob-Naive of 0.0184. In test [4], the Prob-Train stood at 0.269.

In turn, `CC(C)NCC(O)COc1cccc2[nH]ccc12` (stereo not given) [Pindolol] displayed an OMR-Perf in test [1] of -0.138. The Prob-Test in test [2] worked out at 0.149. In test [3], this compound had a Prob-Naive of 0.444. Moreover, the Prob-Train in test [4] amounted to 0.21.

Compound `Cl.O=C(O)/C=C/c1ccc(Cn2ccnc2)cc1` [Ozagrel HCl] showed an OMR-Perf in test [1] of -0.373. In test [2], this compound had a Prob-Test of 0.403. In test [3], this compound gave a Prob-Naive of -0.177. This compound also gave a Prob-Train in test [4] of -0.0854.

`C[C@@H]1O[C@@H]1P(=O)(O)O` [Fosfomycin Tromethamine]: the OMR-Perf in test [1] is -0.276. This compound came in with a Prob-Test in test [2] of -0.325. The same compound registered a Prob-Naive in test [3] of 0.298. The Prob-Train in test [4] was -0.616.
